This test addresses T1, EGFP-tagged IKKα (UniProt O15111).
T1 sequence: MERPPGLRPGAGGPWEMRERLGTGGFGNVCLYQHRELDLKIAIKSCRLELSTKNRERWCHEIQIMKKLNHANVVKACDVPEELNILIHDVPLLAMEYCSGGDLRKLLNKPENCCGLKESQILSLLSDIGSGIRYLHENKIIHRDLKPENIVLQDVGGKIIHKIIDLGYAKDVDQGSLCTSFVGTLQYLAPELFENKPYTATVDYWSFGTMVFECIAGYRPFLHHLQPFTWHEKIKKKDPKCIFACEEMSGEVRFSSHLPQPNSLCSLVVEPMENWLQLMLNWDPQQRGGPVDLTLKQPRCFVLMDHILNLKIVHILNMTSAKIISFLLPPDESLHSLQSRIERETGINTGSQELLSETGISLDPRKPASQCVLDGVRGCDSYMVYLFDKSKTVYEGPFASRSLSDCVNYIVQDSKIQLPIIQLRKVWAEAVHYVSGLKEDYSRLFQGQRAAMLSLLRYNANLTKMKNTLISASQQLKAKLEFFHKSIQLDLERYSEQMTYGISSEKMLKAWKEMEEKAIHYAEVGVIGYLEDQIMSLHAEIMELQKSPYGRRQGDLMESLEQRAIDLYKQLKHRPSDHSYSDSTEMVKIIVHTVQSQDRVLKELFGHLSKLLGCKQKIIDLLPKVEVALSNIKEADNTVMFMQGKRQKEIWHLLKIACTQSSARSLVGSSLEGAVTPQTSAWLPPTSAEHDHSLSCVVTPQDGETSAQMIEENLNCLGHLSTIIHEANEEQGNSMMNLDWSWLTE
The test can be described thus: FRET or BRET; 3-filter FRET microscopy in transfected HEK-293 cells; donor EGFP-tagged IKKα or IKKβ, acceptor red-fluorescent-protein tagged c-Myc; corrected and normalized FRET images (Figure S1, as described in ref. 27). In general terms: BRET reads energy transfer from a luciferase to a nearby fluorophore.

The chains behind the UniProt entries cited, without tags or fusion partners. Where a name states a change or a piece, a line headed by the entry shows the natural chain unless it says otherwise.
UniProt P01106: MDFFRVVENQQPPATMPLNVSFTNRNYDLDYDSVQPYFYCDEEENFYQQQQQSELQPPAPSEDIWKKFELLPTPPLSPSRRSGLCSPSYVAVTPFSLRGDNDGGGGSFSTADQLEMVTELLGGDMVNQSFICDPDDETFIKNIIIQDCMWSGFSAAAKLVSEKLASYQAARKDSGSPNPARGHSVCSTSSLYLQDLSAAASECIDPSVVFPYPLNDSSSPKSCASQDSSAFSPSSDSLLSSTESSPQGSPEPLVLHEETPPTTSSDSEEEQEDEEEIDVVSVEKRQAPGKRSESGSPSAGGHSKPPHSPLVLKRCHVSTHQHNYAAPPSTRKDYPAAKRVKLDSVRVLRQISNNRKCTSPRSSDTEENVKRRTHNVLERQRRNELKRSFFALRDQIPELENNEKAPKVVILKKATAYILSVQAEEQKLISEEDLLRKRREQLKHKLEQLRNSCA

We go through one substance from article PMC7812655.

These are yes or no findings as the source states them, for the method shown. In cells and extracts the contact can be indirect. Binding calls can cover weak binding; strength is not graded here. Tags and fused reporters may be left off the sequences shown.

For the substance “red-fluorescent-protein tagged c-Myc (from UniProt P01106)”, the binding result was “binds”.
